Reference: the supplement of paper PMC10849652
The list shows a part of the results.

By UniProt entry, the sequences of proteins in these tests, tags left out. Where a name states a change or a piece, a line headed by the entry shows the natural chain unless it says otherwise.
UniProt O43422: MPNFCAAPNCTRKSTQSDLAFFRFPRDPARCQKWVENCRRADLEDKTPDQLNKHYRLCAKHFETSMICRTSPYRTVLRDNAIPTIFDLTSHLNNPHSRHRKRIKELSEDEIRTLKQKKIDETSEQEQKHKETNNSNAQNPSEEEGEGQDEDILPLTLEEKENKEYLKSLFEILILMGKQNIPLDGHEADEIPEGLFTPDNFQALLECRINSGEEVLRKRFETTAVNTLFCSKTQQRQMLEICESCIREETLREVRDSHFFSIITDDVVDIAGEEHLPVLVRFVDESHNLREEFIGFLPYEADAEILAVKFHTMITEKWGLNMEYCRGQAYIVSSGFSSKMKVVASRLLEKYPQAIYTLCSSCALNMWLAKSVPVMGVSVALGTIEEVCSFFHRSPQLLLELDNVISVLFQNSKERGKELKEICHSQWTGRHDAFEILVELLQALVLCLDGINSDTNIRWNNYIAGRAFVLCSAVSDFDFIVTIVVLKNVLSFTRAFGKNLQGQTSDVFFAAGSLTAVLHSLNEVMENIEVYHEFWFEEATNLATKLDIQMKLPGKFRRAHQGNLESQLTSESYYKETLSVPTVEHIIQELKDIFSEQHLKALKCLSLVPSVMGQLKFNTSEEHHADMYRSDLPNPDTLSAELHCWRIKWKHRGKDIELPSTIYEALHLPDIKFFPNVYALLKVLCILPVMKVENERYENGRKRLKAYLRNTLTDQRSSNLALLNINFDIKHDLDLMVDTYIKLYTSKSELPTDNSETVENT
UniProt Q04727: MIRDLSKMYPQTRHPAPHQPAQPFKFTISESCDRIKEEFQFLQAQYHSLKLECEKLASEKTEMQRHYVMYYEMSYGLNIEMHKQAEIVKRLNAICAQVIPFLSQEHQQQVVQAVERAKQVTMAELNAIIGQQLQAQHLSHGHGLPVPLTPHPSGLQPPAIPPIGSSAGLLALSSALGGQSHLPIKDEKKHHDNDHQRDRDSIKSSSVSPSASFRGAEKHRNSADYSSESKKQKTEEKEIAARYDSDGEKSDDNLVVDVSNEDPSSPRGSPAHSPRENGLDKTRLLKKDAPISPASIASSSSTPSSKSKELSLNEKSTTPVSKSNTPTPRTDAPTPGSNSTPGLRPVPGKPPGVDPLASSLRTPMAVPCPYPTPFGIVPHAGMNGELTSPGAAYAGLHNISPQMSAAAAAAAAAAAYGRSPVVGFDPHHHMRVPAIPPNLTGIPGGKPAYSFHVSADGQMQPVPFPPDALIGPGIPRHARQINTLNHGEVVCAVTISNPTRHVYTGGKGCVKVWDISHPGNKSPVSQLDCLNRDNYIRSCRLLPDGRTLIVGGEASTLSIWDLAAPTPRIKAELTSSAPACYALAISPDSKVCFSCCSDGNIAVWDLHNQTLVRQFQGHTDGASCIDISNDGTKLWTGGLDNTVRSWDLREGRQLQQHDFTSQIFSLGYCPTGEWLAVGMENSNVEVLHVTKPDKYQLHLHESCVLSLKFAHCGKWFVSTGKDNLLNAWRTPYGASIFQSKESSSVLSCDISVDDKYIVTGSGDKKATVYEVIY
UniProt Q9NX61: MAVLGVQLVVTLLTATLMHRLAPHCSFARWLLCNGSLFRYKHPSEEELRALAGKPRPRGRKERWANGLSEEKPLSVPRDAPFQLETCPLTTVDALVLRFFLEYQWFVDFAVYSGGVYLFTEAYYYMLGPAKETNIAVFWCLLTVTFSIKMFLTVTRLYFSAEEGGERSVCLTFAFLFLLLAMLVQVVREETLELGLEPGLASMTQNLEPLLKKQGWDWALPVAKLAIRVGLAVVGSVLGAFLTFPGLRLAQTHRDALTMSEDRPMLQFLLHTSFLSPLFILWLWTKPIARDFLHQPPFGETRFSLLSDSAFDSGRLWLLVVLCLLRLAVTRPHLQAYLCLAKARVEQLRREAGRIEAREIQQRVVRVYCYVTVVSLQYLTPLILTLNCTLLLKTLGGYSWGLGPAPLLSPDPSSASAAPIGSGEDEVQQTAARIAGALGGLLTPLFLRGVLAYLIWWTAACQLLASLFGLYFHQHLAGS
UniProt Q9BU02: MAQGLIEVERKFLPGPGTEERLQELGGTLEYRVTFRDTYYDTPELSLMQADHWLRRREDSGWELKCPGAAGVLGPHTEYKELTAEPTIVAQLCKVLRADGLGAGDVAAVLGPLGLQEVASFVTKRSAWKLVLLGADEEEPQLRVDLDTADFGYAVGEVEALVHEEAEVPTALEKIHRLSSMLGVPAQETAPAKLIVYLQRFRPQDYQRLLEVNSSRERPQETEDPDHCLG
UniProt P31483: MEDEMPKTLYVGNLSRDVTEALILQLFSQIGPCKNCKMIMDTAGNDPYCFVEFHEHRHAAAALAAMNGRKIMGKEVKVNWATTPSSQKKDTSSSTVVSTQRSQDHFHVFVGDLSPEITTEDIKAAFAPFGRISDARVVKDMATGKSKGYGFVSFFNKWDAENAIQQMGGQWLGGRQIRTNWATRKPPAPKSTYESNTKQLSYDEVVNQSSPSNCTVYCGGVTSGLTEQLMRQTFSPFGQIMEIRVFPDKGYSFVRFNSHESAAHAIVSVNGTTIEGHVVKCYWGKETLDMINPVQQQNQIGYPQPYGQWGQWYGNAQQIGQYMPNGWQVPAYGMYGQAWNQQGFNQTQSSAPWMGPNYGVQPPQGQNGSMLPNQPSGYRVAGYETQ
UniProt Q9Y3A6: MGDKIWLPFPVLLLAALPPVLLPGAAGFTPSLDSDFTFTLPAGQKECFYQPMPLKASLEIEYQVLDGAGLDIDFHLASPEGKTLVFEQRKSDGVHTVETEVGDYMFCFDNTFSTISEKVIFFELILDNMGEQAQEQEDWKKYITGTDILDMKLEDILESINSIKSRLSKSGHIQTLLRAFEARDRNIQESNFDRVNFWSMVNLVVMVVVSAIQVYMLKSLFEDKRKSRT
UniProt Q96DC7: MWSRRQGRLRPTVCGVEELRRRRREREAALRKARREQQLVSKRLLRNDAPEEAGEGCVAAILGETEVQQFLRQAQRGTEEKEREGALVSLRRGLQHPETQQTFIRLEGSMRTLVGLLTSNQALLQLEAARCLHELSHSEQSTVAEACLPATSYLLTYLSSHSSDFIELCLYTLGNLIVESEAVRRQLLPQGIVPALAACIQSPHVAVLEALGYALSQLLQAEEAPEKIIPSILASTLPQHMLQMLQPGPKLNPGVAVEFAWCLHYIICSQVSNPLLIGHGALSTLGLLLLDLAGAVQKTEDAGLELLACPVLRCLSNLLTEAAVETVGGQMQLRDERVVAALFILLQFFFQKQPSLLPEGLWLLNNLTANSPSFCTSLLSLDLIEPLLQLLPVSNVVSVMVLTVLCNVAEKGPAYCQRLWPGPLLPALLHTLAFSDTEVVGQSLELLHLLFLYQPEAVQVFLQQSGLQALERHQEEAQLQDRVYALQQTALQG
UniProt Q5T1C6: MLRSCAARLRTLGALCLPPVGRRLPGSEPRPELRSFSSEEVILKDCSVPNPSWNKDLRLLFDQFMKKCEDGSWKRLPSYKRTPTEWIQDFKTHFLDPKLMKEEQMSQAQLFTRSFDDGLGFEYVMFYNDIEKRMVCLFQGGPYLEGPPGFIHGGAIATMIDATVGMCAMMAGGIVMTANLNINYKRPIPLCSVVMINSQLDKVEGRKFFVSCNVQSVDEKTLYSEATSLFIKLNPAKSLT
UniProt P49755: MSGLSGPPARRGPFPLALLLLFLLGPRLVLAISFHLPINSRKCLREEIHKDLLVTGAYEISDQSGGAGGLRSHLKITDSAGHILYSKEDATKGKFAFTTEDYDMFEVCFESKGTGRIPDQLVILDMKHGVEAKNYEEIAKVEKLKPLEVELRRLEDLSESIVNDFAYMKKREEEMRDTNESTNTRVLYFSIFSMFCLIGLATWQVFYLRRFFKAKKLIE
UniProt Q8NI27: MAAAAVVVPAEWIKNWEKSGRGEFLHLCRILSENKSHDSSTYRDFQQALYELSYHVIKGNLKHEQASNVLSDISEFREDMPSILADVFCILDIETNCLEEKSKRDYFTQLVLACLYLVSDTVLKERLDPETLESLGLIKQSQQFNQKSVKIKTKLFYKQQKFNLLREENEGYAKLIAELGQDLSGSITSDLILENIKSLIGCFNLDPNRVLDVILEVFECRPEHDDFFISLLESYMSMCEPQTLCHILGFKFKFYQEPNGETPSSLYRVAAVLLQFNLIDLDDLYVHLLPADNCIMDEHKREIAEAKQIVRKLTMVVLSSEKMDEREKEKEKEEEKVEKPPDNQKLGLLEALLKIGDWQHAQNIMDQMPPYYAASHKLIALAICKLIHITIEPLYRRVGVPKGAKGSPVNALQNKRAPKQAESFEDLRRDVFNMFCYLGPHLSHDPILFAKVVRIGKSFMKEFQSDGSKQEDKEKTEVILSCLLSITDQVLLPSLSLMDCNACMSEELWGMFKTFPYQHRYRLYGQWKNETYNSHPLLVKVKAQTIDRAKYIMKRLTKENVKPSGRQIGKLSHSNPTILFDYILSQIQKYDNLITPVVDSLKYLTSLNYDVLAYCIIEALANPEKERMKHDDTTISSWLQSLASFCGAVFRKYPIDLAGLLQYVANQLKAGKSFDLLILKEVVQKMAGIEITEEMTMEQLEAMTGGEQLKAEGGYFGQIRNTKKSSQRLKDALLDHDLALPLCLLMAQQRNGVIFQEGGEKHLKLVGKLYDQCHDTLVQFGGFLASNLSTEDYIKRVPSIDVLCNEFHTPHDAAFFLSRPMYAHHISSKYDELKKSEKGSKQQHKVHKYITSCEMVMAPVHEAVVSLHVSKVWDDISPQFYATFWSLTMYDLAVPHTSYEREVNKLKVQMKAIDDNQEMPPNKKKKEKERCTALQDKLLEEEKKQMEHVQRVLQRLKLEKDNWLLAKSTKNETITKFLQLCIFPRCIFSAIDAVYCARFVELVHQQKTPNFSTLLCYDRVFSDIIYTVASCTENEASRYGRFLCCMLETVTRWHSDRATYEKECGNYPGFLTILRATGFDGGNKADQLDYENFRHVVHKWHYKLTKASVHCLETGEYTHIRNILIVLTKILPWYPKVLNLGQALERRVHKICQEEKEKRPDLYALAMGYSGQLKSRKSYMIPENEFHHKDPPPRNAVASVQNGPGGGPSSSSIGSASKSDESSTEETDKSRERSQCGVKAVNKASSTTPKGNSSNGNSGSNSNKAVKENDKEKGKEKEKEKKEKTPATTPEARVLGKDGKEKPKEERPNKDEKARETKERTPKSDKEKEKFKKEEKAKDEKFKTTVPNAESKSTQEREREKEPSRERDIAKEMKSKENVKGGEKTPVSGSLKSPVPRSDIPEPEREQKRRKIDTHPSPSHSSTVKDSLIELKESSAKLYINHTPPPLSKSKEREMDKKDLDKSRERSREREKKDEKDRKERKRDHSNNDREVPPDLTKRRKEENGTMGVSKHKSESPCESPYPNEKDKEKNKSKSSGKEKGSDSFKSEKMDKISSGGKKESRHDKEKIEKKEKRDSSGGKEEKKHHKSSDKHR
UniProt Q9P0S9: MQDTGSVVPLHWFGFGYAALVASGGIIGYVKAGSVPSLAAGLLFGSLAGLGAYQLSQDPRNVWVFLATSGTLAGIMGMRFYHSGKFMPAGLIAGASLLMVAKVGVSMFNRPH
UniProt Q9BRN9: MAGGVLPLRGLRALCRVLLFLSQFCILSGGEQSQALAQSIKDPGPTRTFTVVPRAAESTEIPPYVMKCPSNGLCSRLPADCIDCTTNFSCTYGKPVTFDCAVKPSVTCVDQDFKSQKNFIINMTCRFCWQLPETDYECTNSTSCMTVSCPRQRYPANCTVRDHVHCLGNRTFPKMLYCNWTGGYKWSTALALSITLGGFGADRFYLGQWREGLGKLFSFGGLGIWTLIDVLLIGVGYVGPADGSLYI
UniProt Q8N131: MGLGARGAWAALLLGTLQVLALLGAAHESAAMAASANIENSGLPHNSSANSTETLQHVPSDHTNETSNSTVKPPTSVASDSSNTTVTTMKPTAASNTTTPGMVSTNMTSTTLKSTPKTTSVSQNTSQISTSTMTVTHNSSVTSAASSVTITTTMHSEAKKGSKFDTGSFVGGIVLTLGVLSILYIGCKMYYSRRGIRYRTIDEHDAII
UniProt P51854: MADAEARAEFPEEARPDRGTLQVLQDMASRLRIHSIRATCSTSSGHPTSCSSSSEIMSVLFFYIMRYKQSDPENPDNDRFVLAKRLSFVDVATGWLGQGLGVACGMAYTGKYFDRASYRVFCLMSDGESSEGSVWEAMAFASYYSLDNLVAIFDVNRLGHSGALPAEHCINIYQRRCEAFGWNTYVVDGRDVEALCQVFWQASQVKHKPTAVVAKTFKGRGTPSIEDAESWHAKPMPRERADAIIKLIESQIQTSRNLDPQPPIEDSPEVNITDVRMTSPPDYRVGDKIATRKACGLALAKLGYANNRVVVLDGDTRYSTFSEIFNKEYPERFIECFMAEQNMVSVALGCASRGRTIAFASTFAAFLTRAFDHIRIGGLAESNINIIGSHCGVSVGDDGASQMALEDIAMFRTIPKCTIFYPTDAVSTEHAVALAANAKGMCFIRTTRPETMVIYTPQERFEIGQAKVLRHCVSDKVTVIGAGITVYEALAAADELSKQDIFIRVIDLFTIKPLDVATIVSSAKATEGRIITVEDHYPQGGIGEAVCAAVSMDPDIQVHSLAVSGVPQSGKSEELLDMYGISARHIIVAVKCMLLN

Key:
Test in all cases: log2 fold change, soluble protein after heating vs DMSO (PISA); higher = thermal stabilisation; K562 lysate, 10 uM; active = over 0.2 and 3.5 SD of the protein, either way, in both replicates (recomputed)
[1] = compound: NCC(=O)Nc1ccc(-n2nc(C(F)(F)F)cc2-c2ccc3c(ccc4ccccc43)c2)cc1
How it was run: (§1)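 The values are log-two fold changes in thermal stability compared with solvent controls and come from duplicates. They were obtained by TMTpro 16plex LC-MS/MS, with channel sums equalised, on the supernatant after 21,000xg for 90 min. That supernatant came from crude K562 extract at 1 mg/mL protein treated with 10 μM compound for 30 min, heated for 3 min across 48°C-58°C, pooled and brought to 0.5% NP-40 at 4°C.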

vorinostat = compound: O=C(CCCCCCC(=O)Nc1ccccc1)NO [vorinostat]
How it was run: as §1

silmitasertib = compound: O=C(O)c1ccc2c(c1)nc(Nc1cccc(Cl)c1)c1ccncc12 [silmitasertib]
How it was run: as §1

[2] = compound: O=C1NC(=O)C(c2cnc3ccccn23)=C1c1cn2c3c(cc(F)cc13)CN(C(=O)N1CCCCC1)CC2
How it was run: as §1

entospletinib = compound: c1cn2cc(-c3ccc4cn[nH]c4c3)nc(Nc3ccc(N4CCOCC4)cc3)c2n1 [entospletinib]
How it was run: as §1

Measured: log2 fold change

TM9SF4 (UniProt Q92544)
inactive: [1] 0.038 | vorinostat 0.16 | silmitasertib 0.066 | [2] -0.037 | entospletinib -0.048

TKT isoform 2 (UniProt P29401)
inactive: [1] 0.004 | vorinostat 0.133 | silmitasertib 0.001 | [2] 0 | entospletinib 0.019

TIMM8B (UniProt Q9Y5J9)
inactive: [1] -0.001 | vorinostat -0.164 | silmitasertib 0.046 | [2] -0.031 | entospletinib -0.126

TK1 (UniProt P04183)
inactive: [1] 0.04 | vorinostat -0.028 | silmitasertib -0.001 | [2] 0.014 | entospletinib 0.035

TK1 (UniProt K7ERV3)
inactive: [1] -0.018 | vorinostat 0.086 | silmitasertib 0.01 | [2] -0.014 | entospletinib -0.013

TMEM165 (UniProt Q9HC07)
inactive: [1] -0.024 | vorinostat 0.197 | silmitasertib -0.013 | [2] -0.034 | entospletinib -0.001

TGS1 (UniProt Q96RS0)
inactive: [1] -0.035 | vorinostat -0.119 | silmitasertib 0.033 | [2] -0.015 | entospletinib 0.011

TJP1 isoform 2 (UniProt Q07157)
inactive: [1] 0.029 | vorinostat 0.041 | silmitasertib -0.035 | [2] -0.023 | entospletinib -0.043

TM6SF1 (UniProt Q9BZW5)
inactive: [1] -0.083 | vorinostat 0.215 | silmitasertib -0.032 | [2] -0.043 | entospletinib -0.08

TM9SF1 (UniProt O15321)
inactive: [1] -0.038 | vorinostat 0.14 | silmitasertib -0.042 | [2] -0.053 | entospletinib -0.053

THAP12 (UniProt O43422)
inactive: [1] 0.069 | vorinostat -0.127 | silmitasertib -0.008 | [2] -0.017 | entospletinib 0.04

TLE4 isoform 3 (UniProt Q04727)
inactive: [1] -0.001 | vorinostat 0.031 | silmitasertib 0.028 | [2] -0.089 | entospletinib 0

THYN1 (UniProt Q9P016)
inactive: [1] -0.016 | vorinostat -0.258 | silmitasertib 0 | [2] 0 | entospletinib 0.011

TMEM161A (UniProt Q9NX61)
inactive: [1] -0.017 | vorinostat -0.185 | silmitasertib 0.152 | [2] -0.02 | entospletinib 0.107

THTPA (UniProt Q9BU02)
inactive: [1] -0.05 | vorinostat 0.039 | silmitasertib 0.007 | [2] -0.039 | entospletinib -0.025

TMEM126A (UniProt Q9H061)
inactive: [1] -0.006 | vorinostat 0.041 | silmitasertib 0.02 | [2] 0.07 | entospletinib -0.003

TMEM179B (UniProt Q7Z7N9)
inactive: [1] 0.015 | vorinostat 0.115 | silmitasertib -0.086 | [2] 0.28 | entospletinib -0.105

TIA1 (UniProt P31483)
inactive: [1] -0.061 | vorinostat 0.081 | silmitasertib -0.049 | [2] -0.035 | entospletinib -0.045

Quoted from the listing (3 entries):
TKT isoform 2 (UniProt P29401)
inactive: [1] 0.004 | vorinostat 0.133 | silmitasertib 0.001 | [2] 0 | entospletinib 0.019

TIMM8B (UniProt Q9Y5J9)
inactive: [1] -0.001 | vorinostat -0.164 | silmitasertib 0.046 | [2] -0.031 | entospletinib -0.126

TK1 (UniProt P04183)
inactive: [1] 0.04 | vorinostat -0.028 | silmitasertib -0.001 | [2] 0.014 | entospletinib 0.035

Following part

TMED5 (UniProt Q9Y3A6)
inactive: [1] -0.043 | vorinostat 0.073 | silmitasertib -0.017 | [2] 0.016 | entospletinib -0.021

TMCO6 isoform 2 (UniProt Q96DC7)
inactive: [1] 0.188 | vorinostat -0.123 | silmitasertib -0.014 | [2] -0.047 | entospletinib -0.013

THEM4 (UniProt Q5T1C6)
inactive: [1] -0.014 | vorinostat 0.054 | silmitasertib -0.006 | [2] 0.03 | entospletinib 0.023

TMED10 (UniProt P49755)
inactive: [1] -0.034 | vorinostat 0.138 | silmitasertib -0.012 | [2] 0.018 | entospletinib -0.005

TIMM21 (UniProt Q9BVV7)
inactive: [1] -0.035 | vorinostat -0.131 | silmitasertib -0.039 | [2] -0.042 | entospletinib -0.009

THOC2 (UniProt Q8NI27)
inactive: [1] -0.009 | vorinostat -0.167 | silmitasertib 0.006 | [2] -0.013 | entospletinib 0.013

TMEM120B (UniProt A0PK00)
inactive: [1] -0.093 | vorinostat -0.008 | silmitasertib 0.155 | [2] 0.078 | entospletinib -0.129

TIMM22 (UniProt Q9Y584)
inactive: [1] -0.034 | vorinostat 0.123 | silmitasertib -0.071 | [2] -0.005 | entospletinib -0.001

TMBIM1 (UniProt Q969X1)
inactive: [1] -0.083 | vorinostat 0.083 | silmitasertib -0.022 | [2] -0.07 | entospletinib 0.086

TGOLN2 isoform 7 (UniProt O43493)
inactive: [1] -0.02 | vorinostat 0.089 | silmitasertib 0.055 | [2] -0.047 | entospletinib -0.019

THUMPD2 (UniProt Q9BTF0)
inactive: [1] -0.01 | vorinostat -0.084 | silmitasertib 0.006 | [2] -0.025 | entospletinib -0.015

TMEM14C (UniProt Q9P0S9)
inactive: [1] -0.032 | vorinostat -0.018 | silmitasertib 0.013 | [2] 0.058 | entospletinib 0.091

THG1L (UniProt Q9NWX6)
inactive: [1] 0.027 | vorinostat -0.027 | silmitasertib 0.013 | [2] 0.039 | entospletinib 0.003

TLR9 isoform 4 (UniProt Q9NR96)
inactive: [1] -0.002 | vorinostat -0.023 | silmitasertib 0.134 | [2] 0 | entospletinib 0.011

THOC1 (UniProt Q96FV9)
inactive: [1] 0.009 | vorinostat -0.2 | silmitasertib 0.022 | [2] -0.016 | entospletinib -0.006

TLE3 isoform 4 (UniProt Q04726)
inactive: [1] 0.011 | vorinostat 0.047 | silmitasertib -0.052 | [2] -0.018 | entospletinib -0.009

TM9SF2 (UniProt Q99805)
inactive: [1] 0.02 | vorinostat 0.098 | silmitasertib -0.015 | [2] -0.029 | entospletinib -0.006

TMEM177 (UniProt Q53S58)
inactive: [1] -0.183 | vorinostat -0.012 | silmitasertib -0.035 | [2] 0.034 | entospletinib 0.005

TLE5 isoform 2 (UniProt Q08117)
inactive: [1] -0.031 | vorinostat 0.117 | silmitasertib -0.043 | [2] -0.008 | entospletinib 0.009

TIMM13 (UniProt Q9Y5L4)
inactive: [1] -0.082 | vorinostat 0.065 | silmitasertib 0.026 | [2] 0.03 | entospletinib -0.05

TIMELESS (UniProt Q9UNS1)
inactive: [1] 0 | silmitasertib 0.018 | [2] 0.062 | entospletinib 0.017
active: vorinostat -0.412

TM2D3 (UniProt Q9BRN9)
inactive: vorinostat 0.096 | silmitasertib 0.339 | entospletinib -0.184

TMEM134 (UniProt Q9H6X4)
inactive: vorinostat 0.184 | silmitasertib 0.009 | [2] -0.173

TLNRD1 (UniProt Q9H1K6)
inactive: [2] 0.111

TMEM132A isoform 2 (UniProt Q24JP5)
inactive: vorinostat -0.156 | silmitasertib 0.351 | [2] 0.227 | entospletinib -0.089

TLE3 isoform 5 (UniProt Q04726)
inactive: vorinostat 0.144 | silmitasertib 0.019 | [2] -0.058 | entospletinib -0.002

TMEM123 (UniProt Q8N131)
inactive: [1] 0.005 | vorinostat -0.025 | silmitasertib 0.059 | entospletinib 0.001

TKTL1 (UniProt P51854)
inactive: entospletinib 0.203
